Results: article PMC12607891, “A broadly conserved fungal chorismate mutase targets the plant shikimate pathway to regulate salicylic acid production and other secondary metabolites” (mBio, 2025)

B1: Arabidopsis chorismate mutase AtCM1 (chloroplast-localized) (enzyme, UniProt P42738 1-340)
chain: MEASLLMRSSCCSSAIGGFFDHRRELSTSTPISTLLPLPSTKSSFSVRCSLPQPSKPRSGTSSVHAVMTLAGSLTGKKRVDESESLTLEGIRNSLIRQEDSIIFGLLERAKYCYNADTYDPTAFDMDGFNGSLVEYMVKGTEKLHAKVGRFKSPDEHPFFPDDLPEPMLPPLQYPKVLHFAADSININKKIWNMYFRDLVPRLVKKGDDGNYGSTAVCDAICLQCLSKRIHYGKFVAEAKFQASPEAYESAIKAQDKDALMDMLTFPTVEDAIKKRVEMKTRTYGQEVKVGMEEKEEEEEEGNESHVYKISPILVGDLYGDWIMPLTKEVQVEYLLRRLD
B2: Arabidopsis chorismate mutase AtCM2 (cytosolic) (enzyme, UniProt Q9S7H4 1-265)
chain: MARVFESDSGSGCSNVLSLDLIRESLIRQEDTIVFSLIERAKFPLNSPAFEESRCLDSGSFSSLTEFFVRETEIIQAKVGRYEYPEENPFFLENIPHSVFPTHKYPSALHPKALSVNINKQIWDIYFKELLPLFVKPGDDGNYPSTAASDLACLQALSRRIHYGKFVAEVKFRDAPQDYEPAIRAQDREALMKLLTFEKVEEMVKKRVQKKAETFGQEVKFNSGYGDESKKKYKVDPLLASRIYGEWLIPLTKLVEVEYLLRRLD

Molecular target: Sclerotinia sclerotiorum secreted chorismate mutase SsCM1 (Sclerotinia sclerotiorum) (UniProt A7F9N9)
Test: two-hybrid; Clontech yeast two-hybrid system; SsCM1 as bait (pGBKT7), AtCM1 or AtCM2 as prey (pGADT7); co-transformed into yeast strain HF7C; growth on SD-Trp-Leu-His and LacZ reporter; empty AD or BD vectors as negative controls

Binder	binding
B1	binds
B2	binds

Results are given in words; binding and its absence hold for the method and conditions named. Binding can be weak; no strength is given.
